# Percent effect of library compounds

Amino acid sequences for entries named in this document (tags omitted).
UniProt P9WFT3, whole entry: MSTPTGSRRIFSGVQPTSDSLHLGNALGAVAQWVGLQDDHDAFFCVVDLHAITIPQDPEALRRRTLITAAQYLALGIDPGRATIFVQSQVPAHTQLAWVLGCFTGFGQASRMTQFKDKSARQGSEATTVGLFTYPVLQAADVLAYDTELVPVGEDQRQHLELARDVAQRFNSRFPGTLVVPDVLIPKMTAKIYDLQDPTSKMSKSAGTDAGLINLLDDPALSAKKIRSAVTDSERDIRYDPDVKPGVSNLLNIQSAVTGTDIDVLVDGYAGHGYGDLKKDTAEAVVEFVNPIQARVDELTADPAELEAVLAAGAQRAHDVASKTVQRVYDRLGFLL
UniProt P9WNZ1, whole entry: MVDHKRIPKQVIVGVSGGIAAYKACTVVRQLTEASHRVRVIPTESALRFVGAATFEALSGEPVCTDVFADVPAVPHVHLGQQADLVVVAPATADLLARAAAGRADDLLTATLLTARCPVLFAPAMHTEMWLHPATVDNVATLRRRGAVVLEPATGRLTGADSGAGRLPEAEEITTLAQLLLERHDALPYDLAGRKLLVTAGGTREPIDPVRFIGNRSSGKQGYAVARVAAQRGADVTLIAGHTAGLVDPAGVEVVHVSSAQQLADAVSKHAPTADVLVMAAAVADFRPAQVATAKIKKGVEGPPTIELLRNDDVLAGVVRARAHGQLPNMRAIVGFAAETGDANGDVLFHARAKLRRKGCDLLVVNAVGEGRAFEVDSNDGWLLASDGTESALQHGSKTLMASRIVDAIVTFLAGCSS

Data taken from ChEMBL document CHEMBL3988442, “University of Dundee, Small-Polar-MMV Screening Library” (2021).

A: 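Cell assay of Leishmania donovani living inside macrophages; the read-out is not stated. Tested at 30 µM. Higher reads as stronger inhibition (inferred: compounds with an IC50 in retests scored well above the rest). Of about 69,000 compounds tested this way, about 1,000 (1.5%) reached 50% or more in at least one test.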
B: 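Enzyme assay of tryptophanyl-tRNA synthetase; the read-out is not stated. Target: Tryptophan-tRNA ligase, Mycobacterium tuberculosis (UniProt P9WFT3). Concentration: 10 µM. Direction is not recorded; retested compounds ran higher, which suggests that high means inhibition. Size under these conditions: about 65,000 compounds, about 64 of them at 50% or above in at least one test.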
C: 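Assay of Toxoplasma gondii numbers, read through their beta-galactosidase reporter with a colour substrate. Concentration: 10 µM. Higher reads as fewer parasites (inferred from which compounds were picked for retests). Of about 67,000 compounds tested this way, about 260 (0.38%) reached 50% or more in at least one test.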
D: 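Enzyme assay of CoaBC with a phosphate dye (Biomol Green) read at 650 nm. Target: Coenzyme A biosynthesis protein CoaBC, Mycobacterium tuberculosis (UniProt P9WNZ1). Compounds at 30 µM. Higher reads as stronger inhibition, judged from the few compounds that gave an IC50. Most strong results did not repeat in a second test. About 67,000 compounds were tested under these conditions; 0.06% (about 40) showed 50% or more at least once.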

Values are the deposited “Percent Effect”, in %. How 0% and 100% were set is not recorded. Most values in the screen are low, and negative values occur. Compounds were drawn at random from those tested, without regard to their results. Two or more numbers in one place are separate tests of the same structure; such repeats can differ widely. A dash means the value is not listed here; it may have been measured.

SMILES: CCN1CCC(CC(=O)NCc2cc(C)nn2C)CC1
A: 23.2
B: -3.062
C: 18.84
D: 3.686

SMILES: CS(=O)(=O)N1CCC2(CCCN(Cc3ccccn3)C2)CC1
B: 3.314
D: -3.738

SMILES: Cc1ccc(N2CCCC(N3CCC4(CC3)OCCO4)C2=O)cc1 (stereo not shown)
A: 1.515
B: 2.386
C: -0.1604
D: 10.41

SMILES: CS(=O)(=O)N[C@H]1CN(CCOCc2ccccc2)C[C@@H]1C1CC1
A: -10.19
B: -4.224
C: 3.106
D: -2.539

SMILES: CC(C)n1cccc1C(=O)N1CC[C@@H](NC(=O)c2ccccn2)[C@H](O)C1
A: 22.25
B: -1.536
C: 1.269
D: 5.141

SMILES: CC1(C(=O)N2CCC(n3cc(C4(O)CCCC4)nn3)CC2)CCCCC1
A: 15.66
B: 1.135
C: 11.13

SMILES: CCN(Cc1nc(C)no1)C(=O)C1CC(=O)N(Cc2ccccn2)C1 (stereo not shown)
A: 18.48
B: -1.83
C: 17.45
D: 8.254

SMILES: COCC1CN(Cc2ccc(C)o2)Cc2cn(C)nc21 (stereo not shown)
B: 1.574
D: -0.8883

SMILES: Cn1cccc1C(=O)N1CCO[C@H]2[C@H](OCc3cccnc3)CC[C@@H]21
B: -0.6509
D: 11.73

SMILES: CN1CCN(Cc2cccc(NCc3ncc[nH]3)c2)CC1
A: 3.083
B: 11.02
C: -2.401
D: 3.226

SMILES: CCn1nc2c(cc1=O)CN(c1ncnc3sccc13)CC2
A: 3.104
B: 1.709
C: 58.75
D: 17.51

SMILES: Cc1ccc(CN2Cc3nccn3CC(Cn3cncn3)C2)s1 (stereo not shown)
B: 0.6478
D: -4.362

SMILES: Cc1ncc(-c2ccnc(N3CCC[C@@H]3CO)n2)c(-c2cccnc2)n1
A: 16.07 & -11
C: -26.31
D: 2.289

SMILES: [H][C@]12CCN(Cc3ccc(C)o3)C[C@@]1([H])OCCN(S(C)(=O)=O)C2
A: 1.933 & -25.6
C: 17.39

SMILES: CCN(C(=O)c1c(Cl)cnn1CC)C(C)C(N)=O (stereo not shown)
A: 16.17
B: 0.07097
D: 1.599

SMILES: [H][C@]12CC[C@]([H])(CN(Cc3[nH]cnc3C)C1)N(C(=O)CCc1cnn(C)c1)C2
A: 33.52
C: 0.5816

SMILES: CC(=O)N(CCc1nc(-c2cc(C(N)=O)co2)cs1)C(C)C
A: 5.02
B: -1.852
C: 1.429
D: -2.941

SMILES: Cc1cncc(C(=O)N(c2ccc(F)cn2)C2CCOCC2)c1
A: 12.28
B: -0.3027
C: 2.481

SMILES: CCc1c(C)sc2c1c(N)nc(=O)n2CCN1CCCCC1
A: 45.7
B: 1.375
C: 20.68
D: 3.646

SMILES: CCCN1C[C@H]2CC[C@@H]1CN(C(=O)Cc1c(C)nc(CC)[nH]c1=O)C2
B: 0.4397
D: -6.009

SMILES: CCN(CC)Cc1cc(C(=O)N2CC(C)(C)[C@@](C)(O)C2)c(C)o1
A: -22.75
B: 11.24
C: 2.259
D: 6.774

SMILES: COc1nc(C)c(C(=O)N2CCc3[nH]nc(Cc4ccccc4)c3C2)s1
A: 4.465
B: 0.5435
C: 9.812
D: 12.09

SMILES: O=C(Nc1cccnc1)N(Cc1ccccc1)C1CC1
A: -4.82
B: -1.086
C: 2.674
D: 5.785

SMILES: Cc1ccc(CN2CCC(O)(Cn3ccc4ncccc43)CC2)o1.Cl
A: 8.159
C: -12.91

SMILES: Cc1nc(C)n(CC2CN(Cc3nccs3)Cc3nccn3C2)n1.O=C(O)C(F)(F)F (stereo not shown)
A: -2.024
C: -18.6

SMILES: O=S(=O)(C1CC1)N1CCc2ncnc(-c3ccsc3)c2CC1
A: 13.85
B: -0.9168
C: -12.19
D: -7.083

SMILES: CCOc1cc(NC(=O)N(C)Cc2ncnn2C)ccc1C
A: 1.981
B: -3.336
D: -2.091

SMILES: Cc1cc(C)c2[nH]c(C(=O)NCCN3CCOC3=O)c(C)c2c1
A: -1.724
B: 1.497
C: -0.6071
D: 1.887

SMILES: COc1ccc(C(=O)N2CCN3C(=O)CNC(=O)[C@@H]3C2)cc1
B: 14.38
D: 9.707

SMILES: COc1ccc(OCc2nc(C(=O)N3CC[C@H](O)[C@@H](O)C3)co2)cc1
A: 16.82
B: 0.5418
C: -3.693
D: 1.493

The last 3 entries again:

SMILES,A,B,C,D
Cc1cc(C)c2[nH]c(C(=O)NCCN3CCOC3=O)c(C)c2c1,-1.724,1.497,-0.6071,1.887
COc1ccc(C(=O)N2CCN3C(=O)CNC(=O)[C@@H]3C2)cc1,-,14.38,-,9.707
COc1ccc(OCc2nc(C(=O)N3CC[C@H](O)[C@@H](O)C3)co2)cc1,16.82,0.5418,-3.693,1.493